Results deposited as PubChem BioAssay AID504793 (Drosophila RNAi Screening Center, 2011).

Purpose: 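Genes required for cells to halt at G2/M after double-strand DNA breaks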 (primary screen)
Cell system: Drosophila S2R+ cells
Reagent: long dsRNA against Drosophila genes, about 0.25 µg dsRNA per well
Time to read-out: 4 days of dsRNA, then 4 hours of drug before read-out
Treatment: doxorubicin 0.5 µM for 4 hours to cause double-strand breaks, in cells also given a low, harmless dose of dsRNA against nbs to sensitise the assay
Measurement: 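Per-well count of mitotic cells stained for phospho-histone H3 after doxorubicin exposure, used as mitotic index; counts are raw and not normalised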
Reading the numbers: mitotic cells: higher = more cells in mitosis, weaker G2 arrest
Rule for the call: 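a call needs confirmation in secondary tests, with other dsRNAs and a check of mitotic timing without damage, not just a high primary count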
Calls: active = confirmed in follow-up tests; inactive = not confirmed
The deposit covers about 23,000 reagents; below is a random part of those that have a named target and a result. In the full data, 62 (0.27%) are marked active. 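Calls come from follow-up tests whose scores are not deposited, so confirmed genes may have low counts here; counts are not normalised per plate.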 Raw values are not corrected between plates. Reagents against one gene are numbered here. A plus sign joins genes that one reagent is predicted to hit. Reagent sequences are not shown.

gene knocked down,reagent,"mitotic cells, replicate 1",Call
Zif,1,7,inactive
Snx27,1,11,inactive
Snx27,2,12,inactive
Snx27,3,23,inactive
CG2162,1,5,inactive
CG2162,2,4,inactive
CG42808 + CG42807,1,3,inactive
CG42808 + CG42807,2,6,inactive
CG15673,1,3,inactive
Cse1,1,13,inactive
Cse1,2,2,inactive
Cpr67Fb,1,4,inactive
Cpr67Fb,2,8,inactive
CG34331,1,5,inactive
CG7102,1,6,inactive
CG7102,2,7,inactive
eIF3a,1,7,inactive
eIF3a,2,2,inactive
CG13392,1,5,inactive
spaw,1,7,inactive
CG6962,1,5,inactive
CG6962,2,4,inactive
beta'COP,1,5,inactive
beta'COP,2,6,inactive
CG6839,1,6,inactive
CG7091,1,34,inactive
CG7091,2,5,inactive
d-cup,1,13,inactive
ACXC,1,5,inactive
Hsp23,1,,inactive
Hsp23,2,5,inactive
Alms1a,1,7,inactive
CG13313,1,7,inactive
CG13313,2,1,inactive
Cep164,1,9,inactive
sgll,1,7,inactive
Osi17,1,5,inactive
Tsp42En,1,8,inactive
Dhc36C,1,5,inactive
CG15369,1,17,inactive
CG5726,1,6,inactive
CG5726,2,4,inactive
Polr1H,1,8,inactive
Polr1H,2,3,inactive
CG14459,1,12,inactive
CG17350,1,10,inactive
Rpt5,1,23,inactive
Rpt5,2,12,inactive
PolA2,1,21,inactive
Nubp2,1,11,inactive
Or56a,1,4,inactive
nub,1,8,inactive
nub,2,2,inactive
nub,3,15,inactive
nub,4,6,inactive
nub,5,5,inactive
nub,6,3,inactive
Eph,1,12,inactive
yellow-f,1,4,inactive
yellow-f,2,6,inactive
CG12118,1,11,inactive
CG43897,1,3,inactive
CG43897,2,10,inactive
Arf1,1,7,inactive
CG32806,1,11,inactive
CG32806,2,8,inactive
Gyc89Da,1,3,inactive
CG6425,1,7,inactive
CG33342,1,19,inactive
RpL27,1,,inactive
RpL27,2,11,inactive
Alms1b + Alms1a,1,10,inactive
Alms1b + Alms1a,2,6,inactive
CG13724,1,4,inactive
CG13724,2,2,inactive
Oscillin,1,10,inactive
Oscillin,2,3,inactive
BomS3,1,12,inactive
BomS3,2,2,inactive
MED17,1,15,active
CG14764,1,4,inactive
CG14764,2,9,inactive
CG14764,3,3,inactive
CG32281,1,5,inactive
CG31219,1,9,inactive
loh,1,10,inactive
loh,2,6,inactive
ApepP,1,7,inactive
CG10560,1,9,inactive
aft,1,9,inactive
CG13405,1,8,inactive
CG13405,2,10,inactive
Hrb27C,1,23,inactive
Hrb27C,2,12,inactive
Slc25A46a,1,6,inactive
Tsp42El,1,4,inactive
Set2,1,8,inactive
CG3919,1,7,inactive
CG7953,1,3,inactive
CG4409,1,7,inactive
CG4409,2,7,inactive
CG8564,1,6,inactive
Rhau,1,3,inactive
Rhau,2,9,inactive
CG13800 (retired record),1,2,inactive
CG13800 (retired record),2,2,inactive
CG14042 + SP555,1,6,inactive
CG14042 + SP555,2,3,inactive
Dp1,1,2,inactive
rumpel,1,14,inactive
vig2,1,4,inactive
vig2,2,6,inactive
zfh1,1,8,inactive
zfh1,2,6,inactive
Muc26B,1,4,inactive
Muc26B,2,4,inactive
CG30280,1,9,inactive
Synd,1,5,inactive
CG30103,1,7,inactive
CG30103,2,5,inactive
TyrRII,1,3,inactive
TyrRII,2,2,inactive
CG32801,1,16,inactive
CG32801,2,5,inactive
CG32374,1,6,inactive
CG7137,1,12,inactive
Alg10,1,2,inactive
dpr20,1,4,inactive
CG31909,1,9,inactive
CG31909,2,7,inactive
Edg91,1,11,inactive
her,1,7,inactive
CG10550,1,3,inactive
Br140,1,7,inactive
CG11113,1,4,inactive
CG18132,1,4,inactive
CG33769,1,4,inactive
CG13306,1,6,inactive
babos,1,7,inactive
babos,2,6,inactive

Reagents listed above with an active call (1):
gene knocked down,reagent,"mitotic cells, replicate 1",Call
MED17,1,15,active
